In patent EP4702053A1:
No constants are given. Whether binding was seen depends on the method and setting. Some binding calls cover weakened binding; strength is not graded here.

What was measured:
[1] = biological target: cynomolgus SIRPα (cynomolgus); experiment: FACS on CHO-K1 cells expressing cynomolgus SIRPα, anti-hFc secondary antibody
[2] = biological target: cynomolgus SIRPα (cynomolgus); experiment: FACS on CHO-K1 cells expressing cynomolgus SIRPα

B1: LM-101 (antibody, V domains shown)
VH: QVQLVQSGAEVKKPGSSVKVSCKASGYTFTSNYIHWVRQAPGQGLEWMGWIYPGDADTNYNQKFQGRVTLTADKSTSTAYMELSSLRSEDTAVYYCAINYGGIWFAYWGQGTLVTVSS
VL: DIQMTQSPSSLSASVGDRVTITCQASQDIGNKLIWYQQKPGKAPKLLIYYVTNLPGGVPSRFSGSGSGTDFTLTISSLQPEDFATYYCLQYKQNPLTFGQGTKLEIK
For B1, the binding [1] was “binds” and the binding [2] was “binds”.
